# Data published in the supplement of paper PMC9135407.
# Where “and” joins values, the source holds several entries; their conditions need not be identical. Equal values may be shown once. Where a name gives a salt, the structure may show the parent alone. ± gives the standard deviation of the averaged measurements. This is one part of the list. Baselines shift from plate to plate; read single values as rough.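 Primary human stellate myofibroblasts activated in culture; inactivation shown by regained lipid droplets. Readout: fraction of Hoechst-counted cells exceeding a per-plate Bodipy threshold, duplicate wells, each plate with DMSO negative and nortriptyline positive controls. Hits: control-normalized score beyond the plate's top-tenth-percentile nortriptyline wells, or among its three best wells. Final well concentrations unstated.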
# Test system: primary human hepatic stellate cells (donor 1)
# Assay: percent Bodipy-positive cells; higher = more lipid droplet accumulation
# Settings: 48 h
# [1] = library stock concentration: 10 mM
# [2] = library stock concentration: 3.33 mM
# [3] = library stock concentration: 1 mM
# [4] = library stock concentration: 80 uM
# [5] = library stock concentration: 400 uM
structure (smiles),measurement,setting,value
CCCc1c(OCCCOc2ccc(OCC(=O)O)cc2)ccc(C(C)=O)c1O,percent Bodipy-positive cells,[1],32.7% and 8.58%
O=C1CC2(CCCC2)CC(=O)N1CCCCNCC1COc2ccccc2O1 (stereo not given),percent Bodipy-positive cells,[1],29 ± 1.9%
CC1=C(C(=O)O)N2C(=O)[C@@H](NC(=O)[C@H](N)c3ccccc3)[C@H]2SC1 [Cephalexin monohydrate],percent Bodipy-positive cells,,25.2 ± 3.8%
same,percent Bodipy-positive cells,[1],26 ± 5.8%
CC1=C(C(=O)O)N2C(=O)[C@@H](NC(=O)[C@H](N)c3ccccc3)[C@H]2SC1 [Cephalexin hydrate],percent Bodipy-positive cells,[1],55.4 ± 2.2%
CC1=C(C(=O)O)N2C(=O)[C@@H](NC(=O)[C@H](N)c3ccccc3)[C@H]2SC1 [Cephalexin],percent Bodipy-positive cells,[2],6.32 ± 2%
same,percent Bodipy-positive cells,library stock concentration: 5.8 mM,10.8 ± 0.89%
same,percent Bodipy-positive cells,[1],14.4% and 25.5%
Fc1ccc([C@@H]2CCNC[C@H]2COc2ccc3c(c2)OCO3)cc1.O=C(O)/C=C\C(=O)O [Paroxetine maleate],percent Bodipy-positive cells,[1],99.05 ± 0.55%
CCCCC/C=C\C/C=C\CCCCCCCC(=O)OCC(O)CO (stereo not given) [1-Linoleoyl Glycerol],percent Bodipy-positive cells,[3],13.5 ± 10%
CC1(C)CC(=O)C(C2C3=C(CC(C)(C)CC3=O)Oc3ccccc32)C(=O)C1 (stereo not given),percent Bodipy-positive cells,[1],8.49 ± 0.19%
CC(C)(C)OC(=O)Nc1ccc(-c2cc(C(=O)NCCCCCCC(=O)NO)no2)cc1,percent Bodipy-positive cells,[3],20.4 ± 5.1%
Nc1nc(Nc2ccccc2)nc2c1ncn2[C@@H]1O[C@H](CO)[C@@H](O)[C@H]1O,percent Bodipy-positive cells,[1],6.29 ± 1.8%
CC(C)(C)NCC(O)COc1cccc2c1CC(O)C(O)C2 (stereo not given) [Nadolol],percent Bodipy-positive cells,,7.32 ± 0.75%
same,percent Bodipy-positive cells,[1],55.5 ± 17%
Cc1nc2ccc(-n3ncc(C(=O)c4cc5ccccc5[nH]4)c3N)cc2[nH]1,percent Bodipy-positive cells,[1],74.1 ± 6%
Cc1cccc(C)c1NC(=O)C[N+](C)(C)C,percent Bodipy-positive cells,[1],9.84 ± 0.12%
O=C(OCCN1CCCCC1)c1c[nH]c2ccccc12,percent Bodipy-positive cells,[1],25.6 ± 3%
C[C@H](CCC(=O)NCCS(=O)(=O)O)[C@H]1CC[C@H]2[C@@H]3[C@H](O)C[C@@H]4C[C@H](O)CC[C@]4(C)[C@H]3C[C@H](O)[C@]12C [Sodium Taurocholate hydrate],percent Bodipy-positive cells,[1],35.7 ± 5.5%
Nc1ccccc1NC(=O)c1ccc(CNc2nccc(-c3cccnc3)n2)cc1 [Mocetinostat (MGCD0103)],percent Bodipy-positive cells,[1],80.1 ± 7.3%
Nc1ccccc1NC(=O)c1ccc(CNc2nccc(-c3cccnc3)n2)cc1 [Mocetinostat],percent Bodipy-positive cells,[4],53.3 ± 13%
same,percent Bodipy-positive cells,[5],62.9 ± 8.1%
Cc1ccc(S(=O)(=O)/C=C/C#N)cc1,percent Bodipy-positive cells,[4],14.7 ± 1.6%
same,percent Bodipy-positive cells,[5],7.19 ± 2%
same,percent Bodipy-positive cells,library stock concentration: 2 mM,98.9 ± 1.6%
same,percent Bodipy-positive cells,[2],99.42 ± 0.82%
same,percent Bodipy-positive cells,library stock concentration: 24.1 mM,72.6 ± 10%
O=C(c1cccnc1)N1CCOCC1,percent Bodipy-positive cells,[1],15.8 ± 4%
CNCCCC12CCC(c3ccccc31)c1ccccc12.Cl [Maprotiline hydrochloride],percent Bodipy-positive cells,[1],95.5 ± 1.1%
Cn1sc(=O)n(Cc2ccccc2)c1=O [GSK-3b Inhibitor I],percent Bodipy-positive cells,[2],13.4 ± 3.7%
CC(C)Cn1c(=O)n(C)c(=O)c2nc[nH]c21 [Isobutylmethylxanthine],percent Bodipy-positive cells,library stock concentration: 9 mM,7.54 ± 3.2%
"COc1cc2c(cc1Cc1cccc(Cl)c1F)c(=O)c(C(=O)O)cn2[C@H](CO)C(C)C [Elvitegravir (GS-9137, JTK-303)]",percent Bodipy-positive cells,[2],18.5 ± 6.7%
same,percent Bodipy-positive cells,[1],13.5 ± 3.3%
COc1ccc2cc3[n+](cc2c1OC)CCc1cc2c(cc1-3)OCO2 [Berberine HCl],percent Bodipy-positive cells,[2],16.6 ± 14%
same,percent Bodipy-positive cells,[1],10.7 ± 6.2%
COc1ccc2cc3[n+](cc2c1OC)CCc1cc2c(cc1-3)OCO2 [Berberine chloride],percent Bodipy-positive cells,,29.3 ± 6.9%
same,percent Bodipy-positive cells,[1],25.8 ± 9.5%
"CC[C@@H]1Cc2cc(O)ccc2C2=C1c1ccc(O)cc1C[C@H]2CC [(R,R)-cis-Diethyl tetrahydro-2,8-chrysenediol]",percent Bodipy-positive cells,[1],46.2 ± 8.7%
Nc1ncnc2c1ncn2[C@@H]1O[C@H](CO)C[C@H]1O [Cordycepin],percent Bodipy-positive cells,[1],5.99 ± 0.82%
CCCCCCCCCCCCCCCCOC[C@H](COP(=O)([O-])OCC[N+](C)(C)C)OC(=O)CCC [Butanoyl PAF],percent Bodipy-positive cells,[3],8.07 ± 1.4%
Cc1c2oc3c(C)ccc(C(=O)N[C@@H]4C(=O)N[C@H](C(C)C)C(=O)N5CCC[C@H]5C(=O)N(C)CC(=O)N(C)[C@@H](C(C)C)C(=O)O[C@@H]4C)c3nc-2c(C(=O)N[C@@H]2C(=O)N[C@H](C(C)C)C(=O)N3CCC[C@H]3C(=O)N(C)CC(=O)N(C)[C@@H](C(C)C)C(=O)O[C@@H]2C)c(N)c1=O,percent Bodipy-positive cells,[1],70.3 ± 3.6%
Cc1c2oc3c(C)ccc(C(=O)N[C@@H]4C(=O)N[C@H](C(C)C)C(=O)N5CCC[C@H]5C(=O)N(C)CC(=O)N(C)[C@@H](C(C)C)C(=O)O[C@@H]4C)c3nc-2c(C(=O)N[C@@H]2C(=O)N[C@H](C(C)C)C(=O)N3CCC[C@H]3C(=O)N(C)CC(=O)N(C)[C@@H](C(C)C)C(=O)O[C@@H]2C)c(N)c1=O [Dactinomycin],percent Bodipy-positive cells,library stock concentration: 1.6 mM,29.1 ± 2.6%
same,percent Bodipy-positive cells,[1],72.8 ± 3.1%
Cc1c2oc3c(C)ccc(C(=O)N[C@@H]4C(=O)N[C@H](C(C)C)C(=O)N5CCC[C@H]5C(=O)N(C)CC(=O)N(C)[C@@H](C(C)C)C(=O)O[C@@H]4C)c3nc-2c(C(=O)N[C@@H]2C(=O)N[C@H](C(C)C)C(=O)N3CCC[C@H]3C(=O)N(C)CC(=O)N(C)[C@@H](C(C)C)C(=O)O[C@@H]2C)c(N)c1=O [Actinomycin D],percent Bodipy-positive cells,,47.98 ± 0.41%
CCSC(N)=Nc1ccc(C(F)(F)F)cc1,percent Bodipy-positive cells,[3],7.4 ± 0.64%
COc1ccc2c(c1)c(CC(=O)OCC(=O)O)c(C)n2C(=O)c1ccc(Cl)cc1 [Acemetacin],percent Bodipy-positive cells,,23.4 ± 3.5%
same,percent Bodipy-positive cells,[2],6.42 ± 2.5%
same,percent Bodipy-positive cells,library stock concentration: 4.8 mM,9.54 ± 5.6%
same,percent Bodipy-positive cells,[1],9.05% and 18.1%
NC(=O)c1cc[n+](CC2=C(C(=O)[O-])N3C(=O)[C@@H](NC(=O)Cc4cccs4)[C@H]3SC2)cc1 [Cefalonium],percent Bodipy-positive cells,,7.92 ± 2.5%
Cc1nccn1CC1CCc2c(c3ccccc3n2C)C1=O (stereo not given) [Ondansetron HCl],percent Bodipy-positive cells,[2],7.38 ± 5.4%
same,percent Bodipy-positive cells,[1],17.7 ± 1.7%
Cc1nccn1CC1CCc2c(c3ccccc3n2C)C1=O (stereo not given) [Ondansetron],percent Bodipy-positive cells,library stock concentration: 6.8 mM,15.3 ± 8.3%
same,percent Bodipy-positive cells,[1],51.2 ± 3.6%
Cc1nccn1CC1CCc2c(c3ccccc3n2C)C1=O (stereo not given),percent Bodipy-positive cells,[1],14.8 ± 1.8%
Cc1nccn1CC1CCc2c(c3ccccc3n2C)C1=O (stereo not given) [Ondansetron Hydrochloride],percent Bodipy-positive cells,,14.7 ± 7.5%
CC(=O)NCCCCCCNC(C)=O,percent Bodipy-positive cells,[1],7.24 ± 2%
"O=C1C(O)=C(O)C(=O)C(O)=C1O [Tetrahydroxy-1,4-quinone monohydrate]",percent Bodipy-positive cells,,10.1 ± 1.1%
O=C1C(O)=C(O)C(=O)C(O)=C1O [Tetroquinone],percent Bodipy-positive cells,[1],24.4 ± 5.7%
same,percent Bodipy-positive cells,library stock concentration: 11.6 mM,10.5 ± 1.7%
O=C(NCCCNc1nc(Nc2cccc(NC(=O)N3CCCC3)c2)ncc1I)c1cccs1,percent Bodipy-positive cells,[1],82.3 ± 1.7%
CC(=O)NC[C@H]1CN(c2ccc(N3CCOCC3)c(F)c2)C(=O)O1 [Linezolid],percent Bodipy-positive cells,[2],7.94 ± 1.8%
same,percent Bodipy-positive cells,library stock concentration: 5.9 mM,6.55 ± 2.3%
same,percent Bodipy-positive cells,[1],16.6% and 32.8%
CC(=O)NC[C@H]1CN(c2ccc(N3CCOCC3)c(F)c2)C(=O)O1,percent Bodipy-positive cells,[1],6.38 ± 1.7%

# In a second layout: entries from further up
structure (smiles) | measurement | setting | value
CC1=C(C(=O)O)N2C(=O)[C@@H](NC(=O)[C@H](N)c3ccccc3)[C@H]2SC1 [Cephalexin monohydrate] | percent Bodipy-positive cells |  | 25.2 ± 3.8%
COc1ccc2cc3[n+](cc2c1OC)CCc1cc2c(cc1-3)OCO2 [Berberine HCl] | percent Bodipy-positive cells | [1] | 10.7 ± 6.2%
CC[C@@H]1Cc2cc(O)ccc2C2=C1c1ccc(O)cc1C[C@H]2CC [(R,R)-cis-Diethyl tetrahydro-2,8-chrysenediol] | percent Bodipy-positive cells | [1] | 46.2 ± 8.7%
Cc1nccn1CC1CCc2c(c3ccccc3n2C)C1=O (stereo not given) | percent Bodipy-positive cells | [1] | 14.8 ± 1.8%
